Test results taken from paper PMC11253597.
These are yes or no findings as the source states them, for the method shown. Binding seen in cells or lysates may run through a third protein.

How the values were obtained:
[1] = molecular target: GFP::SseM^T101A (Salmonella enterica serovar Typhimurium strain 12023); test: co-IP; GFP-trap agarose on lysates of HEK293 cells transiently transfected (16 h) with GFP-tagged SseM variants; immunoblot for endogenous β-2-syntrophin and α-dystrobrevin
[2] = molecular target: GFP::SseM^V103A (Salmonella enterica serovar Typhimurium strain 12023); test: as above
[3] = molecular target: translocated SseM^V103A (Salmonella enterica serovar Typhimurium strain 12023); test: co-IP; HeLa cells infected with S. Typhimurium for 14.5 h, then MG132 for 3 h; lysate in buffer A (50 mM Tris pH 7.5, 150 mM NaCl, 0.5% sodium deoxycholate, 1% Triton X-100, 1 mM EDTA) precipitated with rabbit anti-SseM antibody on Protein G agarose; immunoblot

Measured: binding

B1: α-dystrobrevin (protein, UniProt Q9Y4J8 1-743)
chain: MIEDSGKRGNTMAERRQLFAEMRAQDLDRIRLSTYRTACKLRFVQKKCNLHLVDIWNVIEALRENALNNLDPNTELNVSRLEAVLSTIFYQLNKRMPTTHQIHVEQSISLLLNFLLAAFDPEGHGKISVFAVKMALATLCGGKIMDKLRYIFSMISDSSGVMVYGRYDQFLREVLKLPTAVFEGPSFGYTEQSARSCFSQQKKVTLNGFLDTLMSDPPPQCLVWLPLLHRLANVENVFHPVECSYCHSESMMGFRYRCQQCHNYQLCQDCFWRGHAGGSHSNQHQMKEYTSWKSPAKKLTNALSKSLSCASSREPLHPMFPDQPEKPLNLAHIVDTWPPRPVTSMNDTLFSHSVPSSGSPFITRSSPPKDSEVEQNKLLARAAPAFLKGKGIQYSLNVADRLADEHVLIGLYVNMLRNNPSCMLESSNRLDEEHRLIARYAARLAAESSSSQPPQQRSAPDISFTIDANKQQRQLIAELENKNREILQEIQRLRLEHEQASQPTPEKAQQNPTLLAELRLLRQRKDELEQRMSALQESRRELMVQLEGLMKLLKTQGAGSPRSSPSHTISRPIPMPIRSASACSTPTHTPQDSLTGVGGDVQEAFAQSSRRNLRNDLLVAADSITNTMSSLVKELNSEVGSETESNVDSEFARTQFEDLVPSPTSEKAFLAQIHARKPGYIHSGATTSTMRGDMVTEDADPYVQPEDENYENDSVRQLENELQMEEYLKQKLQDEAYQVSLQG
no binding: [1] | [2] | [3]
